Consider 34 compounds from the supplement of paper PMC4635364.

For test [1], the system named is ReNCell VM. The test is described as follows: neuronal differentiation score (DCX+ cell fraction vs untreated, manual image score) (score (-3 to 3)); higher = more neuronal differentiation. As to conditions: 2 uM, 2 weeks.
The subject of test [2] is ReNCell VM. The test is described as follows: dopaminergic neuron differentiation score (TH+ cell fraction vs untreated, manual image score) (score (0 to 3)); higher = more TH+ dopaminergic neuron differentiation. The settings on record: 2 uM, 4 weeks, BDNF 10 ng/ml + GDNF 10 ng/ml.

The structures appear in SMILES notation. The list shows a part of the results. This data set is noisy: repeats of one test often differ as much as different tests do.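 Human fetal ventral-midbrain neural progenitor line ReNCell VM, differentiated without mitogens. Images stained for doublecortin (early neurons) or tyrosine hydroxylase (dopaminergic neurons) were scored by blinded raters against untreated wells (0 = no change). Repeats and both raters were averaged, and compounds averaging 2 or higher were picked as hits for retesting.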

Consider `COc1c2c(nc3occc13)C(CC=C(C)C)(OC)C(=O)C=C2` (stereo not drawn) [perfamine], for which, in the test on ReNCell VM [1] (library: Natural), the neuronal differentiation score was inactive: 0. Moreover, the “dopaminergic neuron differentiation score” value with ReNCell VM [2] (library: Natural) is inactive: 0.

Turning to `CC(=O)N[C@@H](Cc1ccccc1)C(=O)O`, the neuronal differentiation score in the test on ReNCell VM [1] (library: Spectrum) was inactive: 0. For the same compound, in the test on ReNCell VM [2] (library: Spectrum), the “dopaminergic neuron differentiation score” value was inactive: 0.

Regarding `CCn1cc(C(=O)O)c(=O)c2cc(F)c(N3CCN(C)CC3)cc21`, the neuronal differentiation score with ReNCell VM [1] (library: Spectrum) was inactive: 0. Besides, the “dopaminergic neuron differentiation score” value in the test on ReNCell VM [2] (library: Spectrum) was inactive: 0.

As to `O=C(O)C1CC([C@@H]2CCCCN2)CN2CCCCC12` (stereo partly drawn), the neuronal differentiation score in the test with ReNCell VM [1] (library: Spectrum) was inactive: 0. Further, the “dopaminergic neuron differentiation score” value in the test with ReNCell VM [2] (library: Spectrum) is inactive: 0.

As for `Cc1cccc(C)c1NC(=O)c1ccccc1C(=O)O`, the neuronal differentiation score in the test on ReNCell VM [1] (library: Spectrum) was inactive: 0. Moreover, the “dopaminergic neuron differentiation score” value in the test with ReNCell VM [2] (library: Spectrum) is inactive: 1.

`COc1cc2c(=O)c(-c3ccc(O)cc3)coc2cc1O[C@@H]1O[C@H](CO)[C@@H](O)[C@H](O)[C@H]1O` [Glycitin]: the neuronal differentiation score in the test with ReNCell VM [1] (library: Phytochemical) is inactive: 0. In the test with ReNCell VM [2] (library: Phytochemical), the “dopaminergic neuron differentiation score” value is inactive: 0.

With `CC[N+](CC)(CC)CC(=O)Nc1c(C)cccc1C` [QX 314 chloride], the neuronal differentiation score in the test on ReNCell VM [1] (library: Tocriscreen) is inactive: 0. Besides, the “dopaminergic neuron differentiation score” value in the test with ReNCell VM [2] (library: Tocriscreen) is inactive: 0.

Turning to `CN(CCCCCCCCCCN(C)C(=O)Oc1cccc([N+](C)(C)C)c1)C(=O)Oc1cccc([N+](C)(C)C)c1` [Demecarium bromide], the neuronal differentiation score in the test with ReNCell VM [1] (library: Prestwick) is inactive: 0. The “dopaminergic neuron differentiation score” value with ReNCell VM [2] (library: Prestwick) is inactive: 0.

For `C=C[C@@H](C1=CC(=O)C(OC)=C(OC)C1=O)c1ccccc1`, in the test with ReNCell VM [1] (library: Spectrum), the neuronal differentiation score was inactive: 0. Moreover, the “dopaminergic neuron differentiation score” value with ReNCell VM [2] (library: Spectrum) was inactive: 0.

Take `C#CCN[C@@H]1CCc2ccccc21`: the neuronal differentiation score with ReNCell VM [1] (library: Spectrum) is inactive: 0. Besides, in the test with ReNCell VM [2] (library: Spectrum), the “dopaminergic neuron differentiation score” value was inactive: 0.

Turning to `CN1CCC(=C2c3ccccc3C=Cc3ccccc32)CC1`, in the test on ReNCell VM [1] (library: Spectrum), the neuronal differentiation score is inactive: 0. For the same compound, the “dopaminergic neuron differentiation score” value in the test with ReNCell VM [2] (library: Spectrum) is inactive: 0.

`COC(=O)c1sccc1S(=O)(=O)Nc1ccc(Nc2ccccc2)cc1OC`: the neuronal differentiation score with ReNCell VM [1] (library: Tocriscreen) is inactive: 0. Besides, the “dopaminergic neuron differentiation score” value with ReNCell VM [2] (library: Tocriscreen) is inactive: 0.

On to `COc1ccc2c(c1)O[C@@H]1COc3cc(OC)c(OC)cc3[C@@H]1C2=O`, for which the neuronal differentiation score with ReNCell VM [1] (library: Spectrum) was inactive: 0. Further, the “dopaminergic neuron differentiation score” value with ReNCell VM [2] (library: Spectrum) is inactive: 0.

Regarding `N=C(N)NCCC[C@H](N)C(=O)O` [L-Arginine], the neuronal differentiation score with ReNCell VM [1] (library: LOPAC) is inactive: 0. Also, the “dopaminergic neuron differentiation score” value in the test with ReNCell VM [2] (library: LOPAC) is inactive: 0.

`C#C[C@]1(O)CC[C@H]2[C@@H]3CCc4cc(O)ccc4[C@H]3CC[C@@]21C` [Ethinylestradiol]: the neuronal differentiation score in the test on ReNCell VM [1] (library: Prestwick) is inactive: 0. Besides, the “dopaminergic neuron differentiation score” value in the test on ReNCell VM [2] (library: Prestwick) was inactive: 0.

For the compound `CO[C@H]1C[C@@H]2CC[C@@H](C)[C@@](O)(O2)C(=O)C(=O)N2CCCC[C@H]2C(=O)O[C@H]([C@H](C)C[C@@H]2CC[C@@H](O)[C@H](OC)C2)CC(=O)[C@H](C)/C=C(\C)[C@@H](O)[C@@H](OC)C(=O)[C@H](C)C[C@H](C)/C=C/C=C/C=C/1C`, the neuronal differentiation score in the test with ReNCell VM [1] (library: Spectrum) was inactive: 0. Moreover, in the test on ReNCell VM [2] (library: Spectrum), the “dopaminergic neuron differentiation score” value was inactive: 0.

With `Cc1cc(C(C)(C)C)c(O)c(C)c1CC1=NCCN1`, in the test on ReNCell VM [1] (library: Spectrum), the neuronal differentiation score was inactive: 1. In the test with ReNCell VM [2] (library: Spectrum), the “dopaminergic neuron differentiation score” value is inactive: 0.

For `C=CCSCC(N)C(=O)O` (stereo not drawn), the neuronal differentiation score in the test with ReNCell VM [1] (library: Spectrum) is inactive: 0. Besides, the “dopaminergic neuron differentiation score” value with ReNCell VM [2] (library: Spectrum) is inactive: 0.

As to `COc1ccc(-c2cc(=O)c3c(O)cc(O[C@@H]4O[C@H](CO[C@@H]5O[C@@H](C)[C@H](O)[C@@H](O)[C@H]5O)[C@@H](O)[C@H](O)[C@H]4O)cc3o2)cc1O` [Diosmin], the neuronal differentiation score with ReNCell VM [1] (library: Prestwick) is inactive: 0. Moreover, in the test on ReNCell VM [2] (library: Prestwick), the “dopaminergic neuron differentiation score” value is inactive: 0.

With `Nc1ncnc2c1nc(Br)n2C1OC2COP(=O)(O)O[C@@H]2C1O` (stereo partly drawn) [8-Bromo-cAMP sodium], the neuronal differentiation score in the test on ReNCell VM [1] (library: LOPAC) is inactive: 0. Besides, the “dopaminergic neuron differentiation score” value in the test on ReNCell VM [2] (library: LOPAC) was inactive: 0.

Consider `O=C(NCCCCCCNC(=O)ON=C1CCCCC1)ON=C1CCCCC1`, for which the neuronal differentiation score with ReNCell VM [1] (library: Tocriscreen) was inactive: -1. Further, the “dopaminergic neuron differentiation score” value in the test with ReNCell VM [2] (library: Tocriscreen) is inactive: 0.

On to `CCCCCCCCCCCCCc1ccco1`, for which the neuronal differentiation score in the test on ReNCell VM [1] (library: Spectrum) is inactive: 0. Further, the “dopaminergic neuron differentiation score” value in the test on ReNCell VM [2] (library: Spectrum) was inactive: 0.

As to `CN1CCN2c3ccccc3Cc3ccccc3C2C1` (stereo not drawn), in the test with ReNCell VM [1] (library: Spectrum), the neuronal differentiation score is inactive: 0. The “dopaminergic neuron differentiation score” value with ReNCell VM [2] (library: Spectrum) is inactive: 0.

For the compound `N#CC(c1ccc(Cl)cc1)c1c(Cl)cc(-n2ncc(=O)[nH]c2=O)cc1Cl` (stereo not drawn) [Diclazuril], the neuronal differentiation score in the test on ReNCell VM [1] (library: Prestwick) was inactive: 0. For the same compound, the “dopaminergic neuron differentiation score” value in the test with ReNCell VM [2] (library: Prestwick) is inactive: 0.

In the case of `CCS(=O)(=O)CCn1c([N+](=O)[O-])cnc1C`, the neuronal differentiation score in the test with ReNCell VM [1] (library: Spectrum) was inactive: 0. Further, in the test on ReNCell VM [2] (library: Spectrum), the “dopaminergic neuron differentiation score” value is inactive: 0.

With `C[C@H](CCC(=O)O)[C@H]1CC[C@H]2[C@@H]3CC[C@@H]4CCCC[C@]4(C)[C@H]3CC[C@]12C`, in the test on ReNCell VM [1] (library: Spectrum), the neuronal differentiation score was inactive: 0. In addition, the “dopaminergic neuron differentiation score” value in the test on ReNCell VM [2] (library: Spectrum) was inactive: 0.

For `Cc1onc(-c2c(F)cccc2Cl)c1C(=O)N[C@@H]1C(=O)N2[C@@H]1SC(C)(C)[C@@H]2C(=O)O` [Flucloxacillin sodium], in the test on ReNCell VM [1] (library: Prestwick), the neuronal differentiation score was inactive: 0. Also, in the test with ReNCell VM [2] (library: Prestwick), the “dopaminergic neuron differentiation score” value was inactive: 0.

As for `CCOC(=O)C1=C(COCCN)NC(C)=C(C(=O)OC)C1c1ccccc1Cl` (stereo not drawn) [Amlodipine], the neuronal differentiation score in the test with ReNCell VM [1] (library: Prestwick) was inactive: 0. Further, the “dopaminergic neuron differentiation score” value in the test on ReNCell VM [2] (library: Prestwick) was inactive: 0.

For `CC(=O)[C@H]1CC[C@H]2[C@@H]3C[C@H](C)C4=CC(=O)CC[C@]4(C)[C@H]3[C@@H](O)C[C@]12C`, in the test on ReNCell VM [1] (library: Spectrum), the neuronal differentiation score was inactive: 0. In addition, in the test with ReNCell VM [2] (library: Spectrum), the “dopaminergic neuron differentiation score” value is inactive: 0.

Turning to `COc1ccc(-c2nc(C(=O)N3CCN(C)CC3)sc2-c2ccc(OC)cc2)cc1`, the neuronal differentiation score with ReNCell VM [1] (library: Tocriscreen) was inactive: 0. Further, in the test with ReNCell VM [2] (library: Tocriscreen), the “dopaminergic neuron differentiation score” value is inactive: 0.

For the compound `CCc1cc(C(N)=S)ccn1` [Ethionamide], in the test with ReNCell VM [1] (library: Prestwick), the neuronal differentiation score is inactive: 0. The “dopaminergic neuron differentiation score” value with ReNCell VM [2] (library: Prestwick) is inactive: 0.

In the case of `CC(C)NCC(O)COc1ccc(CC(N)=O)cc1` (racemic) [(RS)-Atenolol], the neuronal differentiation score in the test on ReNCell VM [1] (library: Tocriscreen) is inactive: 0. In addition, the “dopaminergic neuron differentiation score” value with ReNCell VM [2] (library: Tocriscreen) is inactive: 0.

Take `S=C=Nc1ccc(N=C=S)cc1`: the neuronal differentiation score in the test on ReNCell VM [1] (library: Spectrum) is inactive: 0. Besides, the “dopaminergic neuron differentiation score” value in the test with ReNCell VM [2] (library: Spectrum) was inactive: 0.

In the case of `FC(F)(Cl)C(F)(F)Cl`, the neuronal differentiation score with ReNCell VM [1] (library: Spectrum) is inactive: 0. Moreover, the “dopaminergic neuron differentiation score” value in the test with ReNCell VM [2] (library: Spectrum) is inactive: 0.
